Patent US20220195054A1 (BERGEN TEKNOLOGIOVERF RING, published 2022)
Results are given in words; binding and its absence hold for the method and conditions named. Some binding calls cover weakened binding; strength is not graded here. Sequences can lack the tags named with a protein.

Legend:
[1] = molecular target: T1, recombinant human Tyro3/Dtk-Fc chimera (rhTyro3/Dtk-Fc; R&D Systems, Cat no. 859-DK) (human) (UniProt Q06418); experiment: Biacore 3000 SPR, rhTyro3/Dtk-Fc on a CM5 chip, rmGas6 injected at 10 µg/mL for 3 min, 5 min dissociation [lower panel rmGas6]
T1 sequence: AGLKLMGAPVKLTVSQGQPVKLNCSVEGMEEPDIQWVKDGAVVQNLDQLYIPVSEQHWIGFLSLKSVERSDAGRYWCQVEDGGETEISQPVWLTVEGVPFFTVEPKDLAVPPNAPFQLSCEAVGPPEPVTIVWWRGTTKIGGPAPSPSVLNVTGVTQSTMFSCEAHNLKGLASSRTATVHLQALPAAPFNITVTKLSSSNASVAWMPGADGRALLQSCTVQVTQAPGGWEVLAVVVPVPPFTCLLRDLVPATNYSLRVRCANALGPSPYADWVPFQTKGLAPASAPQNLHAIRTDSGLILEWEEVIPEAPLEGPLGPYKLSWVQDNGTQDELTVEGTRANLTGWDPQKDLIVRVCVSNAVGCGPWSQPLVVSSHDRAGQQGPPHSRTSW

[2] = molecular target: T1, recombinant human Tyro3/Dtk-Fc chimera (rhTyro3/Dtk-Fc; R&D Systems, Cat no. 859-DK) (human); experiment: SPR (Biacore 3000), rhTyro3/Dtk-Fc immobilised, rmGas6 10 µg/mL

B1: recombinant mouse Gas6 (rmGas6; R&D Systems, Cat no. 986-GS/CF) (ligand, UniProt Q61592 116-674, looked up)
chain: QCTPNPCDKKGTHICQDLMGNFFCVCTDGWGGRLCDKDVNECVQKNGGCSQVCHNKPGSFQCACHSGFSLASDGQTCQDIDECTDSDTCGDARCKNLPGSYSCLCDEGYTYSSKEKTCQDVDECQQDRCEQTCVNSPGSYTCHCDGRGGLKLSPDMDTCEDILPCVPFSMAKSVKSLYLGRMFSGTPVIRLRFKRLQPTRLLAEFDFRTFDPEGVLFFAGGRSDSTWIVLGLRAGRLELQLRYNGVGRITSSGPTINHGMWQTISVEELERNLVIKVNKDAVMKIAVAGELFQLERGLYHLNLTVGGIPFKESELVQPINPRLDGCMRSWNWLNGEDSAIQETVKANTKMQCFSVTERGSFFPGNGFATYRLNYTRTSLDVGTETTWEVKVVARIRPATDTGVLLALVGDDDVVPISVALVDYHSTKKLKKQLVVLAVEDVALALMEIKVCDSQEHTVTVSLREGEATLEVDGTKGQSEVSTAQLQERLDTLKTHLQGSVHTYVGGLPEVSVISAPVTAFYRGCMTLEVNGKILDLDTASYKHSDITSHSCPPVEHATP
binding [1]: binds | binding [2]: binds
